The values that follow are results of earlier work, collected in patent publication US20260144805A1, “CANNABIDIOL COMPOSITIONS FOR USE IN THE TREATMENT OF NEURODEGENERATIVE AND NEUROLOGICAL DISORDERS” (JAZZ PHARMACEUTICALS RESEARCH UK LIMITED, priority 2022, published 2026).

For the data set the following is noted: cited from earlier work.

Like-named read-outs stand apart in the source and are kept apart here.

Take `C=C(C)[C@@H]1CCC(C)=C[C@H]1c1c(O)cc(CCCCC)cc1O` [sCBD, 2-[(1R,6R)-3-Methyl-6-(1-methylethenyl)-2-cyclohexen-1-yl]-5-pentyl-1,3-benzenediol]: the solubility entry by setting is: (organic solvents) “soluble in organic solvents”; (water) “insoluble in water”.
